From PMC11739200
These are yes or no findings as the source states them, for the method shown. Binding seen in cells or lysates may run through a third protein. Some entries that bind do so weakly or less than the wild type. Tags and fused reporters may be left off the sequences shown.

Amino acid sequences for entries named in this document (tags omitted). Residues count along the entry.
UniProt Q03761: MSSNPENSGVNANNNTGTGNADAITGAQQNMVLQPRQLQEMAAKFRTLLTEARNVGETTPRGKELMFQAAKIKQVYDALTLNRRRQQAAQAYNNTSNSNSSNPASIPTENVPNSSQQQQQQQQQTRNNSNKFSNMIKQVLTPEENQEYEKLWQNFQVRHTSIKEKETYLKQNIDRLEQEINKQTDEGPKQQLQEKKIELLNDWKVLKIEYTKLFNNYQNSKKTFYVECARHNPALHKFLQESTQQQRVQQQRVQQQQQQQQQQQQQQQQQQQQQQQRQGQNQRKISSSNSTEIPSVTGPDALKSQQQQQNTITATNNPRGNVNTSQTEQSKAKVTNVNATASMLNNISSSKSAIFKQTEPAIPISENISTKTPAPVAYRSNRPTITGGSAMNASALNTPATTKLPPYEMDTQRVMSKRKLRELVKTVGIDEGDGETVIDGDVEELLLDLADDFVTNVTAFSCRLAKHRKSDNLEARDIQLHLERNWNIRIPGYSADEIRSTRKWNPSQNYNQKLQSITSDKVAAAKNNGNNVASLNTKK
UniProt P18888: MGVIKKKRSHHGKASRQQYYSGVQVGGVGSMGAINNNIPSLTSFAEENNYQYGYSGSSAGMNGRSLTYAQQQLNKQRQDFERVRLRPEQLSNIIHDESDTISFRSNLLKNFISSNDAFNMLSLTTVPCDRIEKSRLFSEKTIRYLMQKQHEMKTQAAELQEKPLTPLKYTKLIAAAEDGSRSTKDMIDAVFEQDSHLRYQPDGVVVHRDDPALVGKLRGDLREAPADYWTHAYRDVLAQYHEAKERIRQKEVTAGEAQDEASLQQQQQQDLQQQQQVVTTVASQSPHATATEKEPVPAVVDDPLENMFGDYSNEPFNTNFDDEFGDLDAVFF
UniProt P18480, residues 1-334: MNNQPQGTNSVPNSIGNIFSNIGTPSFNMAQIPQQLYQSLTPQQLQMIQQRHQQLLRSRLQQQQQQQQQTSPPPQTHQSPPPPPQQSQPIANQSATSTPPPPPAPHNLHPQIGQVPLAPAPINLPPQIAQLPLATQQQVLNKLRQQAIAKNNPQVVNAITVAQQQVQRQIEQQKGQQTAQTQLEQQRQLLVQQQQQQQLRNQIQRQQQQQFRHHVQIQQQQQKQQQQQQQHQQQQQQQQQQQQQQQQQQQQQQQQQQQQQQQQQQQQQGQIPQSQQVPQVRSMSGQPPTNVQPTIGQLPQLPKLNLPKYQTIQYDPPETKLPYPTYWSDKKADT
UniProt P32597, residues 1-300: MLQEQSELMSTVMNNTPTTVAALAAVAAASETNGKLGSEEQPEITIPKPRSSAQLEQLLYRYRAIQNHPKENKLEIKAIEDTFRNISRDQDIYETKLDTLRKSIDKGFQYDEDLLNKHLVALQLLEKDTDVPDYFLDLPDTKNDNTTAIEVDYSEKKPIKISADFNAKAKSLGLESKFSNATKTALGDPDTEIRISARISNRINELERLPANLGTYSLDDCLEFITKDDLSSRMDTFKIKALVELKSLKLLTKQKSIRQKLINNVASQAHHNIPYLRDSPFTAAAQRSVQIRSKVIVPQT
UniProt P22082, residues 1-307: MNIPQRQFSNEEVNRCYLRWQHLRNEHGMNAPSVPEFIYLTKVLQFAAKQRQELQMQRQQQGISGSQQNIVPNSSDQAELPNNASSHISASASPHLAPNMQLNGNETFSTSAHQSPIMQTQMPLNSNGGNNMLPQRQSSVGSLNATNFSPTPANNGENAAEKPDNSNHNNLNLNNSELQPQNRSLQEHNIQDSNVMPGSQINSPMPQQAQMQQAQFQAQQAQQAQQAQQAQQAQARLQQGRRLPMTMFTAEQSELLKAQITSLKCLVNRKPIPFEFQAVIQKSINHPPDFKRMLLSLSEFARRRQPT
UniProt P53115, residues 1-670: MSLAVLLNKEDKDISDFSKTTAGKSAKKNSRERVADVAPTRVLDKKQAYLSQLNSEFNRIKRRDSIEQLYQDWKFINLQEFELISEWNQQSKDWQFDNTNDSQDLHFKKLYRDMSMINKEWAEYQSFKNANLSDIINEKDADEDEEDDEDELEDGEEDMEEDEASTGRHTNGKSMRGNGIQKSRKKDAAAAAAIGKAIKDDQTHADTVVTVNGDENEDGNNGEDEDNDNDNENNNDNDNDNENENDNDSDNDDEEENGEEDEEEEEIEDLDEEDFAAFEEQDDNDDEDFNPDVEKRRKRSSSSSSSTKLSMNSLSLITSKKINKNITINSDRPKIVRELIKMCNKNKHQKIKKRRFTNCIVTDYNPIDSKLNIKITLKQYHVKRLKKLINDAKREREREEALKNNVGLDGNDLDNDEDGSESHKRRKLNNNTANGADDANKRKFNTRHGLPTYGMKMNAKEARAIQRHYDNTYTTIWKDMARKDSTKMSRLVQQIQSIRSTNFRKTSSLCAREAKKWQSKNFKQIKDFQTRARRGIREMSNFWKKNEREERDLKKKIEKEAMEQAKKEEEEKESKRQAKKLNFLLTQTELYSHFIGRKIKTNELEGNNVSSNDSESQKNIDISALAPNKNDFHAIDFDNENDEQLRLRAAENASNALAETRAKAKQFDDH

B1: Taf1 (aa 1-250), HA fusion (domain or fragment, UniProt P46677 1-250)
chain: MVKQQGSGKTNLANEDEAYEAIFGGEFGSLEIGSYIGGDEGANSKDYTEHLPDAVDFEDEDELADDDDDLPEESDANLHPAMMTMGAYDDVNENGAVLGIDSNSLNMQLPEINGDLSQQFILEDDGGTPATSNALFMGMDANEIHLATETGVLDGSGANEIGHSQLSIGGVNGNDMSINGGFIMEPDMSDGKHKKATKLDLINHEKYLLKKYFPDFEKGKILKWNKLIYRRSVPYHWHSEISRVKKPFMP
B2: Swi1 (aa 329-657), HA fusion (domain or fragment, UniProt P09547 329-657)
chain: RAAMFAALQQKQQQRFQALQQQQQQQQNQQQQNQQPQQQQQQQQNPKFLQSQRQQQQRSILQSLNPALQEKISTELNNKQYELFMKSLIENCKKRNMPLQSIPEIGNRKINLFYLYMLVQKFGGADQVTRTQQWSMVAQRLQISDYQQLESIYFRILLPYERHMISQEGIKETQAKRIFLQQFLQELLKKVQQQQQAAALANANNNINSASSAPTPAAPGASVPATAAPGTEAGIVPVSANTPKSLNSNININVNNNNIGQQQVKKPRKQRVKKKTKKELELERKEREDFQKRQQKLLEDQQRQQKLLLETKLRQQYEIELKKLPKVYK
B3: Taf6, HA fusion (protein, UniProt P53040 1-516)
chain: MSTQQQSYTIWSPQDTVKDVAESLGLENINDDVLKALAMDVEYRILEIIEQAVKFKRHSKRDVLTTDDVSKALRVLNVEPLYGYYDGSEVNKAVSFSKVNTSGGQSVYYLDEEEVDFDRLINEPLPQVPRLPTFTTHWLAVEGVQPAIIQNPNLNDIRVSQPPFIRGAIVTALNDNSLQTPVTSTTASASVTDTGASQHLSNVKPGQNTEVKPLVKHVLSKELQIYFNKVISTLTAKSQADEAAQHMKQAALTSLRTDSGLHQLVPYFIQFIAEQITQNLSDLQLLTTILEMIYSLLSNTSIFLDPYIHSLMPSILTLLLAKKLGGSPKDDSPQEIHEFLERTNALRDFAASLLDYVLKKFPQAYKSLKPRVTRTLLKTFLDINRVFGTYYGCLKGVSVLEGESIRFFLGNLNNWARLVFNESGITLDNIEEHLNDDSNPTRTKFTKEETQILVDTVISALLVLKKDLPDLYEGKGEKVTDEDKEKLLERCGVTIGFHILKRDDAKELISAIFFGE
B4: Taf10, HA fusion (protein, UniProt Q12030 1-206)
chain: MDFEEDYDAEFDDNQEGQLETPFPSVAGADDGDNDNDDSVAENMKKKQKREAVVDDGSENAFGIPEFTRKDKTLEEILEMMDSTPPIIPDAVIDYYLTKNGFNVADVRVKRLLALATQKFVSDIAKDAYEYSRIRSSVAVSNANNSQARARQLLQGQQQPGVQQISQQQHQQNEKTTASKVVLTVNDLSSAVAEYGLNIGRPDFYR
B5: Taf4, HA fusion (protein, UniProt P50105 1-388)
chain: MANSPKKPSDGTGVSASDTPKYQHTVPETKPAFNLSPGKASELSHSLPSPSQIKSTAHVSSTHNDAAGNTDDSVLPKNVSPTTNLRVESNGDTNNMFSSPAGLALPKKDDKKKNKGTSKADSKDGKASNSSGQNAQQQSDPNKMQDVLFSAGIDVREEEALLNSSINASKSQVQTNNVKIPNHLPFLHPEQVSNYMRKVGKEQNFNLTPTKNPEILDMMSSACENYMRDILTNAIVISRHRRKAVKINSGRRSEVSAALRAIALIQKKEEERRVKKRIALGLEKEDYENKIDSEETLHRASNVTAGLRAGSKKQYGWLTSSVNKPTSLGAKSSGKVASDITARGESGLKFREAREEPGIVMRDLLFALENRRNSVQTIISKGYAKIRD
B6: Toa1, HA fusion (protein, UniProt P32773 1-286)
chain: MSNAEASRVYEIIVESVVNEVREDFENAGIDEQTLQDLKNIWQKKLTETKVTTFSWDNQFNEGNINGVQNDLNFNLATPGVNSSEFNIKEENTGNEGLILPNINSNNNIPHSGETNINTNTVEATNNSGATLNTNTSGNTNADVTSQPKIEVKPEIELTINNANITTVENIDDESEKKDDEEKEEDVEKTRKEKEQIEQVKLQAKKEKRSALLDTDEVGSELDDSDDDYLISEGEEDGPDENLMLCLYDKVTRTKARWKCSLKDGVVTINRNDYTFQKAQVEAEWV

Target: T1, GST-Ino2 TAD1 (aa 1-35) (S. cerevisiae) (UniProt P26798)
T1 sequence: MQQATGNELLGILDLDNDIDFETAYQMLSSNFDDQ
Assay: pull-down; GST-TAD fusions immobilised on GSH sepharose, incubated with total protein extracts of yeast transformants containing HA fusions of coactivators; buffer SA-125 (20 mM HEPES pH 7.6, 1 mM DTT, 1 mM EDTA, 125 mM K-acetate, 20% glycerol, 1% NP-40); washed with PBS, eluted with free GSH; blot with anti-HA-peroxidase conjugate; only the target purified

binding, binds:
Taf12, HA fusion (from UniProt Q03761 1-539)
Snf6 (full-length), HA fusion (from UniProt P18888 1-332)
Snf5 (aa 1-334), HA fusion (from UniProt P18480 1-334) (domain or fragment)
Sth1 (aa 1-300), HA fusion (from UniProt P32597 1-300) (domain or fragment)
Swi2 (aa 1-307), HA fusion (from UniProt P22082 1-307) (domain or fragment)
Ino80 (aa 1-670), HA fusion (from UniProt P53115 1-670) (domain or fragment)
B1
B2
B3
B4
B5
B6
